The results in this text go back to publication PMC3157345.

In the assay the target is SIRT3-FLAG. Kind of assay: co-IP; FLAG-IPs from HEK293T cells transiently expressing FLAG-tagged sirtuins (SIRT1-7 or SIRT3-5), immunoblotted for SDHA, OSCP, FLAG or with antibody cocktails against complex II and OXPHOS subunits. In general terms: In western blotting, separated proteins are transferred to a membrane and probed.

Results are given in words; binding and its absence hold for the method and conditions named. In cells and extracts the contact can be indirect. Binding calls can cover weak binding; strength is not graded here.

B1: SDHB subunit of complex II (succinate dehydrogenase) (protein, UniProt P21912 29-280)
chain: AQTAAATAPRIKKFAIYRWDPDKAGDKPHMQTYEVDLNKCGPMVLDALIKIKNEVDSTLTFRRSCREGICGSCAMNINGGNTLACTRRIDTNLNKVSKIYPLPHMYVIKDLVPDLSNFYAQYKSIEPYLKKKDESQEGKQQYLQSIEEREKLDGLYECILCACCSTSCPSYWWNGDKYLGPAVLMQAYRWMIDSRDDFTEERLAKLQDPFSLYRCHTIMNCTRTCPKGLNPGKAIAEIKKMMATYKEKKASV
On to B1, for which the binding entry is “binds”.

B2: ATP5O/OSCP (protein, UniProt P48047 24-213)
chain: FAKLVRPPVQVYGIEGRYATALYSAASKQNKLEQVEKELLRVAQILKEPKVAASVLNPYVKRSIKVKSLNDITAKERFSPLTTNLINLLAENGRLSNTQGVVSAFSTMMSVHRGEVPCTVTSASPLEEATLSELKTVLKSFLSQGQVLKLEAKTDPSILGGMIVRIGEKYVDMSVKTKIQKLGRAMREIV
Consider B2, for which the binding result was “binds”.
